In patent US9173938B2, “Combination of a purine-based CDK inhibitor with a tyrosine kinase inhibitor and use thereof in the treatment of proliferative disorders” (Cyclacel Limited, priority 2007, dated 2015):

System: H358 cells
Assay: Cell growth / drug combination analysis (alamar blue, Calcusyn)
Type: cell-based
Details: Homo sapiens, NCI-H358

Structure (SMILES): CC[C@H](CO)Nc1nc(NCc2ccccc2)c2ncn(C(C)C)c2n1 [seliciclib, 2-(1-R-hydroxymethylpropylamino)-6-benzylamino-9-isopropylpurine]
- IC50: 8.5 µM
